Measured values from paper PMC11999606, “Dynein light chains 1 and 2 are auxiliary proteins of pH-sensitive Kir4.1 channels” (The Journal of Biological Chemistry, 2025).

Assays:
[1] = target: T1, N-terminal FLAG-GFP-tagged full-length Kir4.1 (UniProt P78508); assay: co-IP; Kir4.1 WT or ΔTQT purified from HEK293 cells; copurified endogenous LC8 seen on 1D gels by Coomassie staining and by immunoblot with anti-LC8 antibodies
T1 sequence: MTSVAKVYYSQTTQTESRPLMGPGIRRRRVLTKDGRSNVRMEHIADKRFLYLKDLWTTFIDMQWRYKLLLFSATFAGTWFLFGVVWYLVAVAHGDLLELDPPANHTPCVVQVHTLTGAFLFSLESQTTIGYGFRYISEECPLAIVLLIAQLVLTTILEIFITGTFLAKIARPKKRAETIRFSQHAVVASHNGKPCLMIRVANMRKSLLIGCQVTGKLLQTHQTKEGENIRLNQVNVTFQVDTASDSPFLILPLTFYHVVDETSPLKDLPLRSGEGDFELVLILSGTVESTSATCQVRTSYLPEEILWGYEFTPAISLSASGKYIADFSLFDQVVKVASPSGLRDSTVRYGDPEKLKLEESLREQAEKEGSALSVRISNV

[2] = target: T2, full-length Kir4.1 protein with the ΔTQT deletion (UniProt P78508); assay: as above
T2 sequence: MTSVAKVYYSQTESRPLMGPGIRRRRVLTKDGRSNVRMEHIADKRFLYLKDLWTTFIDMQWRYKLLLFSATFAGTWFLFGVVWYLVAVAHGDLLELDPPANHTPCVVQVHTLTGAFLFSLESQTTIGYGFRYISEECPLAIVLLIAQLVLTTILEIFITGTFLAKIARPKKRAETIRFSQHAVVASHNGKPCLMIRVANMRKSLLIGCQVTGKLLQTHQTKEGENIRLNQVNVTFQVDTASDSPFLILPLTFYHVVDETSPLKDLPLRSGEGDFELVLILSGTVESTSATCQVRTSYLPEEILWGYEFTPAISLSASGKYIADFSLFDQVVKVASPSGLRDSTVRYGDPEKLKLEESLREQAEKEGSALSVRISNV

[3] = target: T1, N-terminal FLAG-GFP-tagged full-length Kir4.1; assay: pull-down; GST-LC8, free GST, or GST-LC8 plus free LC8 with purified F-GFP-Kir4.1; PBS; read by GFP signals; both purified
[4] = target: T1, N-terminal FLAG-GFP-tagged full-length Kir4.1; assay: pull-down; competition: GST-LC8 plus added free LC8; F-GFP-Kir4.1 in detergent-solubilized membrane fraction; PBS; read by GFP signals; only the binder purified
[5] = target: T3, GST-tagged ΔTQT Kir4.1 N-term peptide (UniProt P78508); assay: SEC; fluorescence SEC (Shimadzu) on a Superdex 200 column in PBS; shift of the GFP-tagged protein after incubation with the GST-tagged partner; both purified
T3 sequence: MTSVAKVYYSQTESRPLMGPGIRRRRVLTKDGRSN

[6] = target: T4, GST-tagged WT Kir4.1 N-term peptide (residues 1-38) (UniProt P78508); assay: as above
T4 sequence: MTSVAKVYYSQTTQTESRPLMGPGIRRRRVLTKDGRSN

[7] = target: GST-tagged LC8 of the peptide binding assay; assay: as above

binding [1]: binds | binding [2]: no binding
Molecule: dynein light chain 1 (human (endogenous in HEK293))

binding [3]: binds | binding [4]: binds
Molecule: free LC8

binding [5]: no binding | binding [6]: binds
Molecule: GFP-tagged LC8

binding [7]: no binding
Molecule: MTSVAKVYYSQTESRPLMGPGIRRRRVLTKDGRSN (peptide, UniProt P78508 1-38) [GFP-tagged ΔTQT Kir4.1 N-term peptide]

These are yes or no findings as the source states them, for the method shown. For some of these results: Binding can be weak; no strength is given. For some of these results: Sequences can lack the tags named with a protein. For some of these results: In cells and extracts the contact can be indirect. Each block holds one molecule with its values, some of them ahead of it.
